# From article doi:10.1101/2023.06.05.543797
# Results are given in words; binding and its absence hold for the method and conditions named. A result given as binding can be weak or reduced; the word gives no strength. For some assays here: Binding seen in cells or lysates may run through a third protein.
# B1: KASH domain of human JAW1/LRMP (amino-acids 515-555) (peptide, UniProt Q12912 515-555)
# chain: TGQLFQKSVDAAPTQQEDSWTSLEHILWPFTRLRHNGPPPV
# B2: KASH6 core (human JAW1/LRMP amino-acids 531-555) (peptide, UniProt Q12912 531-555)
# chain: EDSWTSLEHILWPFTRLRHNGPPPV
# How the values were obtained:
# [1] = target: SUN domain of human SUN1 (amino-acids 616-812) (human); test: crystal structure
# [2] = target: SUN domain of human SUN1 (amino-acids 616-812) (human); test: SEC-SAXS
Binder,binding [1],binding [2]
B1,binds,
B2,,binds
